Binding data for three substances are collected here from article PMC4889105.

By UniProt entry, the sequences of proteins in these tests, tags left out.
UniProt P0ABQ4: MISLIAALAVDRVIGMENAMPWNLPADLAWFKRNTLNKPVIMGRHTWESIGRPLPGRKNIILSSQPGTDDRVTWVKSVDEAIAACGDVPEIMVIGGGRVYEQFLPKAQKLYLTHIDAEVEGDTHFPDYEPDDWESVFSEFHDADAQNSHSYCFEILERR

Assay [1] concerns the target biotinylated p53 (wild type) (UniProt P04637). The assay is described as follows: condition: 0.75 μL of each crude translation mixture; AlphaScreen or HTRF; model assay: 0.75 μL crude biotinylated protein and 0.75 μL crude FLAG-protein, 100 mM Tris-HCl pH 7.5, 1 mg/mL BSA, 0.1% Tween 20, 100 mM NaCl, 26°C 1 h; streptavidin donor beads, anti-DYKDDDDK antibody with protein A acceptor beads, 23°C 1 h; 384-well. In general terms: Bead proximity is the source of the signal in Alpha formats.

The target of assay [2] is FLAG-MDM2 (wild type) (mouse) (UniProt P23804). The assay is described as follows: co-IP; crude biotinylated p53 and crude FLAG-MDM2 from the wheat cell-free system mixed, 150 mM NaCl, 26°C 1 h; precipitated with anti-DYKDDDDK antibody on Protein G Dynabeads, eluted with DYKDDDDK peptide; blot with anti-FLAG and anti-biotin antibodies.
Assay [3] deals with biotinylated p53 (wild type) (UniProt P04637). The assay is described as follows: AlphaScreen or HTRF; model assay: 0.75 μL crude biotinylated protein and 0.75 μL crude FLAG-protein, 100 mM Tris-HCl pH 7.5, 1 mg/mL BSA, 0.1% Tween 20, 100 mM NaCl, 26°C 1 h; streptavidin donor beads, anti-DYKDDDDK antibody with protein A acceptor beads, 23°C 1 h; 384-well.
For assay [4] the target is unchanged. The assay is described as follows: AlphaScreen or HTRF; fixed amount of biotinylated p53 (0.75 μl) mixed with 0.25 to 3.0 μl of crude FLAG-E3s, same procedure as Fig 3A.
Assay [5] has as its target biotinylated dihydrofolate reductase (UniProt P0ABQ4). Put plainly: condition: 0.75 μL of each crude translation mixture; AlphaScreen or HTRF; model assay: 0.75 μL crude biotinylated protein and 0.75 μL crude FLAG-protein, 100 mM Tris-HCl pH 7.5, 1 mg/mL BSA, 0.1% Tween 20, 100 mM NaCl, 26°C 1 h; streptavidin donor beads, anti-DYKDDDDK antibody with protein A acceptor beads, 23°C 1 h; 384-well.

Assay [6] deals with biotinylated p53 (wild type) (UniProt P04637). Put plainly: AlphaScreen or HTRF; screen of the E3 protein array (258 FLAG-E3s, crude) against biotinylated p53 as bait, conditions as in the model assay, robotic dispensing; signal with p53 divided by signal with biotinylated DHFR; hits: relative value higher than 8.

No constants are given. Whether binding was seen depends on the method and setting. For part of these data: In cells and extracts the contact can be indirect. Some results given as binding are weak or reduced against the parent protein; the word gives no strength.

As to “FLAG-dihydrofolate reductase (from UniProt P0ABQ4 1-159) (enzyme)”, the binding result in assay [1] is “no binding”.

For the substance “biotinylated p53 (wild type) (from UniProt P04637 1-393)”, in assay [2], the binding entry was “binds”.

Consider “FLAG-MDM2 (wild type) (from UniProt P23804 1-489) (enzyme)”, for which the binding result in assay [3] is given as “binds”; in assay [4] it was “binds”; in assay [5], “no binding”; in assay [6], “binds”.
